The assay concerns the target T1, MIC4 (Toxoplasma gondii (endogenous in RH/Δku80/Δhxgprt/dTomato parasites)) (UniProt Q9XZH7).
T1 sequence: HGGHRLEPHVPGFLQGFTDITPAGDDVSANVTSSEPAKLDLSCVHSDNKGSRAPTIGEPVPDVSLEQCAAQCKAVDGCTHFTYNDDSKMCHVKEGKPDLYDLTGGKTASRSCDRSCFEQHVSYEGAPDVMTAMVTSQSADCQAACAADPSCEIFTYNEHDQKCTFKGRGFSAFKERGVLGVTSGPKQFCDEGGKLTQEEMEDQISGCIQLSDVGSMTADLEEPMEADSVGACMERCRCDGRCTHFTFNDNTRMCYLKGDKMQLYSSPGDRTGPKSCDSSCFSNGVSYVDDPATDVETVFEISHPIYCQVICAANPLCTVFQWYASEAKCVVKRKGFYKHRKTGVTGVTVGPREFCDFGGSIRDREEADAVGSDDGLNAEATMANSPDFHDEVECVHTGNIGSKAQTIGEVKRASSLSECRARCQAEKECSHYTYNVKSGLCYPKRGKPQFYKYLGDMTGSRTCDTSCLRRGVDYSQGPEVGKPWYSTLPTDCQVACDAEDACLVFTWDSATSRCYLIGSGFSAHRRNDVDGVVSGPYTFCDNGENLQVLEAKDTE
The assay is described as follows: affinity purification with mass spectrometry.

From publication doi:10.1101/2025.10.16.682961 come the findings set out here.

Results are given in words; binding and its absence hold for the method and conditions named. Binding seen in cells or lysates may run through a third protein. Here binding means that the protein was enriched with, or labelled near, the bait; the list need not be complete.

B1: MIC6 (protein, UniProt Q9XYH7 24-349)
chain: SPFFAFLPGNGEIADNCSGNPCGGTAAGTCINTPSGYDCRCEPGYVLGVENDQVTCMMPSGVPMANFVQLSETPAACSSNPCGPEAAGTCKETNSGYICRCNQGYRISLDGTGNVTCIVRQESGCEENGCGPPDAVQSCRRLTGTAGRLCVCKENFIATIDASAHITCKRVPPHYRKPPFEFGKGGHPVDSEPSKRQREDEGESREPESDSTEPGRDQERRTPLEESQEPEGSTPDSQQSRGGSGSDSTESEEQGKEREEGSGHAGAIAGGVIGGLLLLSAAGAGVAYMRKSGSGGGEEIEYERGIEAAEASEVEVLVDLDSKTWD
On to B1, for which the binding result is recorded as “binds”.

B2: MIC1 (protein, UniProt O00834 17-456)
chain: VGPEAYGEASHSHSPASGRYIQQMLDQRCQEIAAELCQSGLRKMCVPSSRIVARNAVGITHQNTLQWRCFDTASLLESNQENNGVNCVDDCGHTIPCPGGVHRQNSNHATRHEILSKLVEEGVQRFCSPYQASANKYCNDKFPGTIARRSKGFGNNVEVAWRCYEKASLLYSVYAECASNCGTTWYCPGGRRGTSTELDKRHYTEEEGIRQAIGSVDSPCSEVEVCLPKDENPPLCLDESGQISRTGGGPPSQPPEMQQPADRSDERGGGKEQSPGGEAQPDHPTKGGNIDLPEKSTSPEKTPKTEIHGDSTKATLEEGQQLTLTFISTKLDVAVGSCHSLVANFLDGFLKFQTGSNSAFDVVEVEEPAGPAVLTIGLGHKGRLAVVLDYTRLNAALGSAAYVVEDSGCSSSEEVSFQGVGSGATLVVTTLGESPTAVSA
B2: the binding result is reported as “binds”.
